Results from article PMC3411106, “Structural analysis of the human SYCE2–TEX12 complex provides molecular insights into synaptonemal complex assembly” (Open Biology, 2012).

Molecular target: T1, MBP–SYCE2_(57–88) (human, UniProt Q6PIF2 57-88)
T1 construct: human SYCE2, residues 57–88 (α1 region); Monomer by SEC–MALS; also called α1 region of SYCE2; source: E. coli Rosetta 2 (DE3); co-expressed (pRSFDuet-1), in clarified lysate for the pull-down; individually expressed, purified on amylose resin for SEC–MALS; not shown: MBP, N-terminal, kept
T1 chain (looked up): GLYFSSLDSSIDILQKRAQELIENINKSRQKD
Assay: pull-down; amylose pull-down after co-expression in bacteria of MBP-fusion SYCE2 constructs (bait) with His-tagged TEX12 or SYCE2 constructs; lysis in 20 mM Tris pH 8.0, 500 mM KCl, 2 mM DTT; 1 h at 4°C; maltose elution; Coomassie-stained SDS–PAGE

| Substance | binding |
| --- | --- |
| N-terminal region of TEX12 (construct of supplementary figure S4) (human) (domain or fragment) | no binding |
| α1–2 region of TEX12 (construct of supplementary figure S4) (human) (domain or fragment) | no binding |

Results are given in words; binding and its absence hold for the method and conditions named. Binding seen in cells or lysates may run through a third protein. Sequences can lack the tags named with a protein.
